For this assay, the target named is T1, Flag-tagged TRAF7 (HEK293T) (UniProt Q6Q0C0).
T1 sequence: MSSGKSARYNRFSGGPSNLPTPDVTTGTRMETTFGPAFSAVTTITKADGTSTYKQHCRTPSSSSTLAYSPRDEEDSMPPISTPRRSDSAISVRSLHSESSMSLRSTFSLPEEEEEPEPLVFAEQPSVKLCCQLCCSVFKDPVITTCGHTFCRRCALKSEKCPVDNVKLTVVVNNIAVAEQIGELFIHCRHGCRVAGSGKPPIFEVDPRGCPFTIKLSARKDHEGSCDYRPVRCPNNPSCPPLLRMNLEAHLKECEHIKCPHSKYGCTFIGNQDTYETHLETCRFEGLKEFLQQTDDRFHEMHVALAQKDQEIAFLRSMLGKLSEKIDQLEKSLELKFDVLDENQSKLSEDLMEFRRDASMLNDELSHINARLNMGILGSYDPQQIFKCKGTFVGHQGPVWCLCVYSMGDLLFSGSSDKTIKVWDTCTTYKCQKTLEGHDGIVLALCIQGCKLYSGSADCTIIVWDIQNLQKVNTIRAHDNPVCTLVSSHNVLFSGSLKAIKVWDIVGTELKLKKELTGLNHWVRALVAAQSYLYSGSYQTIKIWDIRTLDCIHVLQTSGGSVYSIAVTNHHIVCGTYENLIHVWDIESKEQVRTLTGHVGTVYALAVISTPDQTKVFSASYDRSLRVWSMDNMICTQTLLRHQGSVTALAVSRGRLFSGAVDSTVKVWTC
Nature of the assay: co-IP; 'exogenous co-IP': HEK293T cells co-transfected with Flag/Ha-tagged TRAF7 and P53; same steps as the endogenous co-IP (antibody and Protein A/G magnetic beads 3 h, high salt and low salt washes).

No constants are given. Whether binding was seen depends on the method and setting. Binding seen in cells or lysates may run through a third protein. Some binding calls cover weakened binding; strength is not graded here. Sequences can lack the tags named with a protein.

For the substance “Ha-tagged P53 (from UniProt P04637 1-393)”, the binding result is reported as “binds”.

The record behind these values is paper PMC8590685.
